# In publication PMC9692554:
# For at least one entry, the source does not settle the construct or the ends of the probe. Tags and fusion partners may be left off the protein sequences shown.
# Biological target: T1, pMarR (Gp0.7) WT (cyanophage P-SSP7) (UniProt Q58N47)
# T1 sequence (looked up, limits assumed): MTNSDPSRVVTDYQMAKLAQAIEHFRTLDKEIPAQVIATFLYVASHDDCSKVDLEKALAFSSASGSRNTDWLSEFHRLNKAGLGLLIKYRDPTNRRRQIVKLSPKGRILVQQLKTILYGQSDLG
# Experiment: EMSA
# Conditions: no Ca2+, Kd almost 4-fold higher than with Ca2+ (value only in figure); EMSA: 20 mM Tris pH 8, 60 mM KCl, 1 mM EDTA, 12% glycerol, 2 mM DTT, 1 ug poly(dI-dC), 12.5 ng (legend: 12.5 nM) Cy5-DNA, +/-5 mM Ca2+, 1% agarose 0.5x TAE; recombinant protein; protein details: C-terminal His; label: Cy5 5' (forward primer); probe letters rebuilt from the primers and the genome
sequence,measurement,value
CAGCATCAATACCTGGTAGGACATTTTCAACAGTTCCTAAAAAAATATCCCCGATTTGATATTGACCTTGTGCGACGATTAATTCATCAACTTGATCATCTGTGAGTAGTGCTGCAATACGCGCCTGCTCAGCTATTACAATTTGCTGAGAC (double strand) [rne Pi+],binding result,binds
